For 42 sequences, binding signal results are on record in article PMC7819943, “Rice protein-binding microarrays: a tool to detect cis-acting elements near promoter regions in rice”.

Chains of the proteins cited; added tags and fusions are not shown.
UniProt Q0JBA9, entry or part of it: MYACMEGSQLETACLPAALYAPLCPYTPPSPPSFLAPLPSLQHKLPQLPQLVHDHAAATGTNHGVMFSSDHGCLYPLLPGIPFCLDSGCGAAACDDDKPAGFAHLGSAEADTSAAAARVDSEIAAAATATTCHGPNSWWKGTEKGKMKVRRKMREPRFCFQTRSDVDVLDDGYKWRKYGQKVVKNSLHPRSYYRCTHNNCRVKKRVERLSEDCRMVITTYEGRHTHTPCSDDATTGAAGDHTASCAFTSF

This is one part of the list.

This assay addresses OsWRKY34 (Oryza sativa, UniProt Q0JBA9 1-250). The assay is described as follows: protein-binding microarray (RPBM); PBS, 2% BSA, 51.3 ng/ul salmon testes DNA, 50 uM zinc acetate, 200 nM TF, 25 C, 1 h; high values mean tight binding. Particulars: protein: recombinant; tags: N-terminal polyhistidine and DsRed monomer fusion (pET32a); label: CyDye5-dUTP incorporated in the synthesized complementary strand; 3' TTTTT single-stranded linker to array surface; dsDNA, one strand shown. The essentials:
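Polyhistidine-tagged DsRed fusions of transcription factors, joined at the N-terminus, were expressed in E. coli BL21-CodonPlus and isolated on Ni–NTA. They were incubated at 200 nM for 1 h at 25 °C on a custom Agilent array, double-stranded and BSA-blocked, in PBS with 2% BSA, salmon testes DNA and 50 µM zinc acetate. The binding signal is per-feature fluorescence intensity (arbitrary units) read on an Axon 4000B scanner after washing.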
As for “CCCTACTCCCTCCCGTGAGGCCCAACCATCTCCGTCTCTCCGGAGTCACCTAGTGCAG”, the binding signal is 8880 fluorescence intensity (a.u.).

Regarding “CTCCATCTCCATTATTTCCACCCCGGCAACAATCCAACCGCGGAGTCACCTAGTGCAG”, the binding signal was 8860 fluorescence intensity (a.u.).

For “GCCACCAATCCTCGGCCTCCGCGCGCGGCTGCGCCCAGTCCGGAGTCACCTAGTGCAG”, the binding signal is 12300 fluorescence intensity (a.u.).

Consider “GTGTACTTTATCCGATATAAGATGTAACTTATTTTATTTACGGAGTCACCTAGTGCAG”, for which the binding signal is 9300 fluorescence intensity (a.u.).

As to “CTTCGATTAGCTCAGTTCTATACTTCTATTTCGTCTGTTGCGGAGTCACCTAGTGCAG”, the binding signal is 8270 fluorescence intensity (a.u.).

Take “AACTAACGATCACGACGTTGACTTCAATCCACATATATATCGGAGTCACCTAGTGCAG”: the binding signal was 11500 fluorescence intensity (a.u.).

Regarding “CTACCTATGTCGATCGAAGTTCCTGGCATACACTGTATACCGGAGTCACCTAGTGCAG”, the binding signal is 9170 fluorescence intensity (a.u.).

In the case of “TACAAGGTCGAATCCACCAACCTGACTTCTTTTTCGTCGCCGGAGTCACCTAGTGCAG”, the binding signal was 8140 fluorescence intensity (a.u.).

Turning to “GGTCGAGCATCCCGTCACCTTCCCACTCCTCATTTGCTCGCGGAGTCACCTAGTGCAG”, the binding signal is 10800 fluorescence intensity (a.u.).

As to “GGAGGAGAGGAGGTGAGTAGGGGTAGTTCAATGGCATTTTCGGAGTCACCTAGTGCAG”, the binding signal is 8640 fluorescence intensity (a.u.).

In the case of “ACGTCTGCCTTATTTGTAAATATTTCTTTGTTTTCTATTTCGGAGTCACCTAGTGCAG”, the binding signal was 10800 fluorescence intensity (a.u.).

Consider “ACTTTATCGTGTATCAATTCATCTTTGTGCGTCTTGACTACGGAGTCACCTAGTGCAG”, for which the binding signal was 9070 fluorescence intensity (a.u.).

For “GCTCCAGCCCAATCTGCTGCTTCCTACCTTTTCTCCATACCGGAGTCACCTAGTGCAG”, the binding signal was 10000 fluorescence intensity (a.u.).

As for “TCCTGTCGTATGTCTTCACCACCACACAAACAATGCTTCTCGGAGTCACCTAGTGCAG”, the binding signal is 9550 fluorescence intensity (a.u.).

“CAGAGGGACCCAACGTAGTGCCAAACGTCACCATTTCATGCGGAGTCACCTAGTGCAG”: the binding signal was 8220 fluorescence intensity (a.u.).

Consider “AATAAGACGAATGGTCAAACGCGTACTAAAAAGTCAACGGCGGAGTCACCTAGTGCAG”, for which the binding signal was 14500 fluorescence intensity (a.u.).

Regarding “TCCAGCCACGCCTCGTCACTCGCCACCCACACTGCGCAAGCGGAGTCACCTAGTGCAG”, the binding signal was 10000 fluorescence intensity (a.u.).

For the sequence “TACTCATCTCCTTCGGTGACATACACTGTTGCACTTTGGCCGGAGTCACCTAGTGCAG”, the binding signal was 11500 fluorescence intensity (a.u.).

For the sequence “TGGTTCTTGGGCAGCTTGTTGGGGAATTCGGTTTCGACGACGGAGTCACCTAGTGCAG”, the binding signal is 13300 fluorescence intensity (a.u.).

In the case of “AACTAGGTCCCTCGGCGGTTTTGACTCCTGTTTTGTCCAACGGAGTCACCTAGTGCAG”, the binding signal was 12500 fluorescence intensity (a.u.).

On to “TTATATAGGGTGTCATATGGGGTGTTTGGATACTAATAAACGGAGTCACCTAGTGCAG”, for which the binding signal is 9390 fluorescence intensity (a.u.).

Consider “CCCCGCGATCCCGCCTCGGCATATTCGCCGTCCTTCGCCTCGGAGTCACCTAGTGCAG”, for which the binding signal is 10300 fluorescence intensity (a.u.).

Turning to “GCCATCTCCTCCCCAACACTGGGCCGCGCCGCATCGTCTCCGGAGTCACCTAGTGCAG”, the binding signal is 8200 fluorescence intensity (a.u.).

Regarding “TTCCCTCCGTTTCAGGTTATAAGACGTTTTGACTTTGGTTCGGAGTCACCTAGTGCAG”, the binding signal was 9490 fluorescence intensity (a.u.).

For the sequence “ACACACCGCACACCAGGGGCAATCCCGTAAATCGACCAAACGGAGTCACCTAGTGCAG”, the binding signal is 9720 fluorescence intensity (a.u.).

Consider “TCTTGCTCAAGATCTATTTGACGCCAACATTTTCGAACAACGGAGTCACCTAGTGCAG”, for which the binding signal was 8530 fluorescence intensity (a.u.).

In the case of “GACGCGGCGCAGTGCAACCAACAAACCGGGGCGGGCGGGGCGGAGTCACCTAGTGCAG”, the binding signal is 11800 fluorescence intensity (a.u.).

As for “ATTAATCATATGCTAATGGCTCACCTCATTTTACGTATCTCGGAGTCACCTAGTGCAG”, the binding signal is 8940 fluorescence intensity (a.u.).

In the case of “CATTTCCATTTCCCAATTCCACCCCTCCTAATCCATTTTCCGGAGTCACCTAGTGCAG”, the binding signal is 8240 fluorescence intensity (a.u.).

As for “TCATTAGCGTTCTTTGTGCTTACTGGTACTATCGGTTTCTCGGAGTCACCTAGTGCAG”, the binding signal is 9500 fluorescence intensity (a.u.).

For “CCCGCCGTGTGGCCGTGCATTGCTGTCCCTGAGCTTGCTGCGGAGTCACCTAGTGCAG”, the binding signal is 8140 fluorescence intensity (a.u.).

Take “TTCTTCATTTGGTTTTCATAGTTCAGTTGTGTTGTGATCTCGGAGTCACCTAGTGCAG”: the binding signal was 14200 fluorescence intensity (a.u.).

Take “CTGCTGGAGAATCATCCCTGTGATCTTTTGTTTCCTGCTTCGGAGTCACCTAGTGCAG”: the binding signal was 8420 fluorescence intensity (a.u.).

Turning to “ACGGGGCACGAGACCAACCACGCATTCTAGCGCCACCGAACGGAGTCACCTAGTGCAG”, the binding signal is 8170 fluorescence intensity (a.u.).

“GCCGAAAGCCCATTTAGTTAGTTTTGTTCCGCTGAAAGCCCGGAGTCACCTAGTGCAG”: the binding signal was 8430 fluorescence intensity (a.u.).

As for “GCTCCCTACCATCCCATGGCTGCGACAGATTGTTTTATTACGGAGTCACCTAGTGCAG”, the binding signal is 8620 fluorescence intensity (a.u.).

Regarding “CTCTCTCTTCTTTTATCTCCTCGATATGTGTTTAAGCTGGCGGAGTCACCTAGTGCAG”, the binding signal was 8670 fluorescence intensity (a.u.).

“CCCGCTCAAAATAATTCCCGCGTCCCCGCCCGCCGCGGCCCGGAGTCACCTAGTGCAG”: the binding signal was 8920 fluorescence intensity (a.u.).

On to “GACACTCTGCAGTATCCCGTTTGGCAATTTTTCTGCATCACGGAGTCACCTAGTGCAG”, for which the binding signal is 10900 fluorescence intensity (a.u.).

As for “AGGCTAATACTTTAGCCGGCTGCTGGCTGAATACTACTACCGGAGTCACCTAGTGCAG”, the binding signal was 10700 fluorescence intensity (a.u.).

Take “TGGCCGATCTCCGCGCGATCGACGCGAACCGCCTCATTCTCGGAGTCACCTAGTGCAG”: the binding signal was 8070 fluorescence intensity (a.u.).

On to “CTCCTCCATCTTCGCGCCGCCGTCCCTCACCACATTCGCTCGGAGTCACCTAGTGCAG”, for which the binding signal is 9920 fluorescence intensity (a.u.).
